For some of these results: At least one compound was matched to its structure with a doubt left. Some results were stated once for a whole list of compounds, not compound by compound. Some ranges recur; such a range may be that of the whole group of compounds.
Target: T1, human TLR7 (Homo sapiens, UniProt Q9NYK1)
T1 sequence (Q9NYK1 27-1049): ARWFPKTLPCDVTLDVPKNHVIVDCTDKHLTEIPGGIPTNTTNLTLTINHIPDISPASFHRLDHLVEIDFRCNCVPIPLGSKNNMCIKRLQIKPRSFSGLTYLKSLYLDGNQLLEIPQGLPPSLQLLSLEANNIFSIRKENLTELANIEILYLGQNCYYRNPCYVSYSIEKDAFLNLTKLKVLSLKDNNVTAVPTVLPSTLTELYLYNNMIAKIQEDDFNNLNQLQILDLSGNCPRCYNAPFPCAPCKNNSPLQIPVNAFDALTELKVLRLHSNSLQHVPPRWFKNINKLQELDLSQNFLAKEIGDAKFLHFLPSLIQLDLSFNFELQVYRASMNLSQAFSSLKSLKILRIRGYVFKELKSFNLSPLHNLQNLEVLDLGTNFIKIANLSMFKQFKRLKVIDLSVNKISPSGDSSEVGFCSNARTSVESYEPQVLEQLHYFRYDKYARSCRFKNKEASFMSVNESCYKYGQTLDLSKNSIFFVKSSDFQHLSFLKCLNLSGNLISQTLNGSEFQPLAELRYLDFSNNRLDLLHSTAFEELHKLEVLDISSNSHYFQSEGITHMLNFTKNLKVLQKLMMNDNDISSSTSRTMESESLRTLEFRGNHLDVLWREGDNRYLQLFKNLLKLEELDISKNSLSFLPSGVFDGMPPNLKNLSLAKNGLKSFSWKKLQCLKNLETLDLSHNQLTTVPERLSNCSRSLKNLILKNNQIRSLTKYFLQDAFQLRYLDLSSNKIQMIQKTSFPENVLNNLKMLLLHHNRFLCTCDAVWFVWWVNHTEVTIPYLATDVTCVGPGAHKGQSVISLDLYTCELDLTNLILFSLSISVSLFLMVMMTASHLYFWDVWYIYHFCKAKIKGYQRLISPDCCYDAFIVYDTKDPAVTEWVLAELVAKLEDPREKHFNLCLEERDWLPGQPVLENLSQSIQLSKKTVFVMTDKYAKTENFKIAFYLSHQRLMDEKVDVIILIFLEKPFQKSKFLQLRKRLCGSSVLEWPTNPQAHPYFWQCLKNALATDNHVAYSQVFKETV
Assay: HEK293-Blue-hTLR-7 cells assay (SEAP reporter)
Format: cell-based
Settings: EC50 of prodrug over EC50 of corresponding active form
Text: HEK293-Blue-hTLR-7 Cells Assay:
A stable HEK293-Blue-hTLR-7 cell line was purchased from InvivoGen (Cat.#: hkb-htlr7, San Diego, Calif., USA). These cells were designed for studying the stimulation of human TLR7 by monitoring the activation of NF-κB. A SEAP (secreted embryonic alkaline phosphatase) reporter gene was placed under the control of the IFN-β minimal promoter fused to five NF-κB and AP-1-binding sites. The SEAP was induced by activating NF-κB and AP-1 via stimulating HEK-Blue hTLR7 cells with TLR7 ligands. Therefore the reporter expression was regulated by the NF-κB promoter upon stimulation of human TLR7 for 20 hrs. The cell culture supernatant SEAP reporter activity was determined using QUANTI-Blue™ kit (Cat.#: rep-qbl, Invivogen, San Diego, Calif., USA) at a wavelength of 640 nm, a detection medium that turns purple or blue in the presence of alkaline phosphatase.
HEK293-Blue-hTLR7 cells were incubated at a density of 250,000˜450,000 cells/mL in a volume of 180 μL in a 96-well plate in Dulbecco's Modified Eagle's medium (DMEM) containing 4.5 g/L glucose, 50 U/mL penicillin, […], […], 2 mM L-glutamine, 10% (V/V) heat-inactivated fetal bovine serum for 24 hrs. Then the HEK293-Blue-hTLR-7 cells were incubated with addition of 20 μL test compound in a serial dilution in the presence of final DMSO at 1% and perform incubation under 37° C. in a CO2 incubator for 20 hrs. Then 20 μL of the supernatant from each well was incubated with 180 μL Quanti-blue substrate solution at 37° C. for 2 hrs and the absorbance was read at 620˜655 nm using a spectrophotometer. […]
The Compounds and Examples of the present invention were tested in HEK293-hTLR-7 assay for their TLR7 agonism activity as described herein and results are listed in Table 1. […] The calculated ratio of EC50(prodrug)/EC50(active form) were within the range from 32 to about 7600.

Structure (SMILES) | Ratio (EC50(prodrug)/EC50(active form))
CCCN(CC)C(=O)n1c(=O)n(Cc2ccccc2)c2nc(S(=N)(=O)CCC)nc(N)c21 (stereo not shown) [Example 3, 6-Amino-9-benzyl-N-ethyl-8-oxo-N-propyl-2-(propylsulfonimidoyl)purine-7-carboxamide] | 232.3
CCC[S@](=N)(=O)c1nc(N)c2c(n1)n(Cc1ccc(C)cc1)c(=O)n2C(=O)N(C)CCOC [Example 38-A, 6-Amino-N-(2-methoxyethyl)-N-methyl-8-oxo-2-[S(S)-propylsulfonimidoyl]-(p-tolylmethyl)purine-7-carboxamide] | 1378.9
CCCS(=N)(=O)c1nc(N)c2c(n1)n(Cc1ccccc1)c(=O)n2C(=O)N(C)CCN(C)C(=O)OC(C)(C)C (stereo not shown) [Example 27, tert-Butyl N-[2-[[6-amino-9-benzyl-8-oxo-2-(propylsulfonimidoyl)purine-7-carbonyl]-methyl-amino]ethyl]-N-methyl-carbamate] | 487.7

System: not listed separately
Assay: Single dose PK study in male Wister-Han rats
Format: in vivo
Settings: prodrugs versus GS9620, S-2, S-3 and Compound 41c-A, 41c-B, 43e-A, 5 mg/kg oral
Experimental: The single dose PK in Male Wister-Han Rats was performed to assess pharmacokinetic properties of tested compounds. Two groups of animals were dosed via Gavage (POE) of the respective compound. […] Blood samples were placed into tubes containing EDTA-K2 anticoagulant and centrifuged at 5000 rpm for 6 min at 4° C. to separate plasma from the samples. After centrifugation, the resulting plasma was transferred to clean tubes for bioanalysis of both prodrug and active form on LC/MS/MS. In the groups that prodrug were dosed, the concentration of prodrugs in the plasma samples was under the detection limit. The “tested compound” in Table 8 was used as the internal standard for testing the metabolite (active form) of “dose compound” in vivo. The pharmacokinetic parameters were calculated using non-compartmental module of WinNonlin® Professional 6.2. The peak concentration (Cmax) was recorded directly from experimental observations. The area under the plasma concentration-time curve (AUC0-t) was calculated using the linear trapezoidal rule up to the last detectable concentration. Cmax and AUC0-last are two critical PK parameters related to the in vivo efficacy of the tested compound. Compounds with higher Cmax and AUC0-last will lead to the better in vivo efficacy.

Structure (SMILES) | AUC0-last folds increase | Cmax folds increase
CCCN(C)C(=O)n1c(=O)n(Cc2ccc(F)cc2)c2nc([S@@](=N)(=O)CC)nc(N)c21 (single isomer, unassigned) [Example 45-B] | 2.5-56 folds | 5-175 folds
CCCN(C)C(=O)n1c(=O)n(Cc2ccc(C)cc2)c2nc([S@](=N)(=O)CC)nc(N)c21 [Example 43-A, 6-Amino-2-[S(R)-ethylsulfonimidoyl]-N-methyl-8-oxo-N-propyl-9-(p-tolylmethyl)purine-7-carboxamide] | 2.5-56 folds | 5-175 folds
CCN(C)C(=O)n1c(=O)n(Cc2ccc(Cl)cc2)c2nc([S@@](=N)(=O)CC)nc(N)c21 [Example 42-A, 6-Amino-9-[(4-chlorophenyl)methyl]-N-ethyl-2[S(S)-ethylsulfonimidoyl]-N-methyl-8-oxo-purine-7-carboxamide] | 2.5-56 folds | 5-175 folds
CCN(C)C(=O)n1c(=O)n(Cc2ccc(Cl)cc2)c2nc([S@@](=N)(=O)CC)nc(N)c21 (stereo in doubt) [Example 42-B, 6-Amino-9-[(4-chlorophenyl)methyl]-N-ethyl-2-[S(R)-ethylsulfonimidoyl]-N-methyl-8-oxo-purine-7-carboxamide] | 2.5-56 folds | 5-175 folds
CCCN(C)C(=O)n1c(=O)n(Cc2ccc(Cl)cc2)c2nc([S@@](=N)(=O)CC)nc(N)c21 [Example 41-B, 6-Amino-9-[(4-chlorophenyl)methyl]-2-[S(S)-ethylsulfonimidoyl]-N-methyl-8-oxo-N-propyl-purine-7-carboxamide] | 2.5-56 folds | 5-175 folds
CCCN(C)C(=O)n1c(=O)n(Cc2ccc(F)cc2)c2nc(S(=N)(=O)CC)nc(N)c21 (single isomer, unassigned) [Example 45-A] | 2.5-56 folds | 5-175 folds

System: not listed separately
Assay: LYSA solubility study
Format: physicochemical
Settings: aqueous solubility, 0.05M phosphate buffer pH 6.5
Experimental: LYSA study is used to determine the aqueous solubility of tested compounds. Samples were prepared in duplicate from 10 mM DMSO stock solution. After evaporation of DMSO with a centrifugal vacuum evaporator, the compounds were dissolved in 0.05M phosphate buffer (pH 6.5), stirred for one hour and shaken for two hours. After one night, the solutions were filtered using a microtiter filter plate. Then the filtrate and its 1/10 dilution were analyzed by HPLC-UV. […] The results were in μg/mL. In case the percentage of sample measured in solution after evaporation divided by the calculated maximum of sample amount was bigger than 80%, the solubility was reported as bigger than this value.

Structure (SMILES) | LYSA of Active Forms (μg/mL)
CCS(=N)(=O)c1nc(N)c2[nH]c(=O)n(Cc3ccc(Br)cc3)c2n1 (single isomer, unassigned) [Compound 47e-A] | <1.0 or <1.0 μg/mL

From patent publication US10233184B2, “7-substituted sulfonimidoylpurinone compounds and derivatives for the treatment and prophylaxis of virus infection” (Hoffmann-La Roche Inc., priority 2016, dated 2019)
